Measurements reported in patent US20230293491A1, “COMPOSITIONS AND METHODS FOR DIAGNOSIS AND TREATMENT OF CONDITIONS RELATED TO THE QUALITY OF AGING AND LONGEVITY” (EPITRACKER, INC., priority 2020, published 2023).

Test system: Navy dolphins
Assay: Correlations of serum histidine betaine concentrations with health indices in the dolphin serum metabolome
Assay type: in vivo, bottlenose dolphins (Tursiops truncatus)
Details: wild Sarasota Bay dolphins vs Navy dolphins

C[N+](C)(C)C(Cc1cnc[nH]1)C(=O)[O-] (stereo not shown) [histidine betaine]
Serum concentration, Sarasota vs Navy: 2.96 (x times higher)
